Drug screen on melanoma cell lines: cell count

From a melanoma drug combination screen (doi:10.1371/journal.pone.0140310); values rounded.

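The test systems are human melanoma cell lines, treated with two drugs together for 72 h and then stained and imaged. The read-out is cell count (nuclei) in % of the DMSO control; lower values mean stronger growth inhibition or killing. Concentrations were fixed for each drug; these are the lower of two levels, a fifth of the higher. No replicate spread is given; individual values may be noisy.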
Only some of the drugs and lines screened are listed, without regard to their results.

Compounds and concentrations:
sunitinib, 400 nM: CCN(CC)CCNC(=O)c1c(C)[nH]c(/C=C2\C(=O)Nc3ccc(F)cc32)c1C
temozolomide, 2000 nM: Cn1nnc2c(C(N)=O)ncn2c1=O
SNS-314, 0.8 nM: O=C(Nc1cccc(Cl)c1)Nc1ncc(CCNc2ncnc3ccsc23)s1
STA-4783, 6 nM: CN(NC(=O)CC(=O)NN(C)C(=S)c1ccccc1)C(=S)c1ccccc1
AZD7762, 20 nM: NC(=O)Nc1cc(-c2cccc(F)c2)sc1C(=O)N[C@H]1CCCNC1
MK-1775, 20 nM: C=CCn1c(=O)c2cnc(Nc3ccc(N4CCN(C)CC4)cc3)nc2n1-c1cccc(C(C)(C)O)n1
tamatinib, 400 nM: COc1cc(Nc2ncc(F)c(Nc3ccc4c(n3)NC(=O)C(C)(C)O4)n2)cc(OC)c1OC
ruxolitinib, 1000 nM: N#CC[C@H](C1CCCC1)n1cc(-c2ncnc3[nH]ccc23)cn1
ZM336372, 2000 nM: Cc1ccc(NC(=O)c2cccc(N(C)C)c2)cc1NC(=O)c1ccc(O)cc1

* MK-1775 + ruxolitinib : C32: 84.7; A2058: 81.6; A375: 92.1; A101D: 85.0
* temozolomide + ruxolitinib : C32: 105; A2058: 80.2; A375: 101; A101D: 120
* AZD7762 + MK-1775 : C32: 95.3; A2058: 105; A375: 21.5; A101D: 76.8
* SNS-314 + STA-4783 : C32: 64.3; A2058: 80.6; A375: 40.4; A101D: 74.7
* ruxolitinib + ZM336372 : C32: 106; A2058: 98.7; A375: 97.2; A101D: 116
* AZD7762 + ZM336372 : C32: 118; A2058: 96.3; A375: 57.1; A101D: 76.3
* temozolomide + AZD7762 : C32: 112; A2058: 72.1; A375: 63.4; A101D: 104
* ruxolitinib + tamatinib : C32: 73.1; A2058: 81.2; A375: 77.7; A101D: 86.7
* AZD7762 + STA-4783 : C32: 82.8; A2058: 80.5; A375: 16.3; A101D: 81.8
* sunitinib + ruxolitinib : C32: 99.1; A2058: 113; A375: 111; A101D: 108
* MK-1775 + STA-4783 : C32: 79.5; A2058: 50.0; A375: 14.0; A101D: 60.2
* SNS-314 + ZM336372 : C32: 72.1; A2058: 98.4; A375: 83.5; A101D: 88.5
* MK-1775 + temozolomide : C32: 78.9; A2058: 69.6; A375: 75.6; A101D: 71.4
* tamatinib + STA-4783 : C32: 71.5; A2058: 61.3; A375: 23.3; A101D: 75.4
* AZD7762 + ruxolitinib : C32: 97.6; A2058: 105; A375: 72.7; A101D: 87.7
* tamatinib + AZD7762 : C32: 98.5; A2058: 98.8; A375: 40.0; A101D: 69.7
* ZM336372 + STA-4783 : C32: 82.2; A2058: 52.8; A375: 20.9; A101D: 65.7
* STA-4783 + ruxolitinib : C32: 74.2; A2058: 86.1; A375: 30.2; A101D: 98.6
* temozolomide + tamatinib : C32: 114; A2058: 79.8; A375: 95.0; A101D: 71.1
* temozolomide + ZM336372 : C32: 86.9; A2058: 76.9; A375: 114; A101D: 89.0
* STA-4783 + temozolomide : C32: 70.8; A2058: 41.6; A375: 24.0; A101D: 73.6
* tamatinib + ZM336372 : C32: 103; A2058: 75.1; A375: 77.1; A101D: 63.2
* SNS-314 + AZD7762 : C32: 92.1; A2058: 108; A375: 50.8; A101D: 88.4
* MK-1775 + SNS-314 : C32: 77.4; A2058: 97.1; A375: 66.7; A101D: 79.8
* SNS-314 + ruxolitinib : C32: 86.6; A2058: 95.6; A375: 117; A101D: 105

For reference, 3 entries once more:

Pair,C32,A2058,A375,A101D
temozolomide + ruxolitinib,105,80.2,101,120
AZD7762 + ruxolitinib,97.6,105,72.7,87.7
MK-1775 + SNS-314,77.4,97.1,66.7,79.8